Assay results reported in the supplement of paper PMC10849652.
Some of the results follow.

Chains of the proteins cited; added tags and fusions are not shown. Lines headed by an entry give the natural chain unless they say otherwise; changes in a name come on top.
UniProt O75531: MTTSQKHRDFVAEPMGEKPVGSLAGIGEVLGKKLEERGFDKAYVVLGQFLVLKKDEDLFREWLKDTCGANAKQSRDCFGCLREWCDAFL
UniProt P51572: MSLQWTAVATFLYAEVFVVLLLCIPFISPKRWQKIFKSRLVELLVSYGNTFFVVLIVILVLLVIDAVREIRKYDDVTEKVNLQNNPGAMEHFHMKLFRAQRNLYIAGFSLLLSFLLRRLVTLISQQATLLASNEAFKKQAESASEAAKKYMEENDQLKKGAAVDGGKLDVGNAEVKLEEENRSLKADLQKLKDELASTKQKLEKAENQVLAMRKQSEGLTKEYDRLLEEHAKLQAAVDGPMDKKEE
UniProt Q9NUP1: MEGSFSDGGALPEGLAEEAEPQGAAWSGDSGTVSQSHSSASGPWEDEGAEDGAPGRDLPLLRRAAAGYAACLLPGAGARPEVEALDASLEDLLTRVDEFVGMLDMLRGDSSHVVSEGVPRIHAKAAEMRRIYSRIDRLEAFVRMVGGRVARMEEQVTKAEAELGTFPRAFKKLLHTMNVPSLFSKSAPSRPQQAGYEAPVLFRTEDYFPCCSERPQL
UniProt O75934: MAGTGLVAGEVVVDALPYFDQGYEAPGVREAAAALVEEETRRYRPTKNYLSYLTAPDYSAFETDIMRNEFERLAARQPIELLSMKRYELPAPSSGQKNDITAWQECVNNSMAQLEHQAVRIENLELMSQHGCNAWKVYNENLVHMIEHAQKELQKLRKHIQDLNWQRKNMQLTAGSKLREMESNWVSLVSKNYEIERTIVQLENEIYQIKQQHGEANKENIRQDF
UniProt O95861: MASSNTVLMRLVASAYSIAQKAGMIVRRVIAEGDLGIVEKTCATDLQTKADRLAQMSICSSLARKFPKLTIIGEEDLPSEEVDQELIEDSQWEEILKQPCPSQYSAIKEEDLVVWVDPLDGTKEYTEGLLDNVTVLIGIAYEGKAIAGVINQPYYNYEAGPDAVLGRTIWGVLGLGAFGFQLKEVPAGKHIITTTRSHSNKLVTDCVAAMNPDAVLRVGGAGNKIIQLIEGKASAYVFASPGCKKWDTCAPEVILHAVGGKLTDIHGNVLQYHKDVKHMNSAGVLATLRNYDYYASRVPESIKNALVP
UniProt P12694: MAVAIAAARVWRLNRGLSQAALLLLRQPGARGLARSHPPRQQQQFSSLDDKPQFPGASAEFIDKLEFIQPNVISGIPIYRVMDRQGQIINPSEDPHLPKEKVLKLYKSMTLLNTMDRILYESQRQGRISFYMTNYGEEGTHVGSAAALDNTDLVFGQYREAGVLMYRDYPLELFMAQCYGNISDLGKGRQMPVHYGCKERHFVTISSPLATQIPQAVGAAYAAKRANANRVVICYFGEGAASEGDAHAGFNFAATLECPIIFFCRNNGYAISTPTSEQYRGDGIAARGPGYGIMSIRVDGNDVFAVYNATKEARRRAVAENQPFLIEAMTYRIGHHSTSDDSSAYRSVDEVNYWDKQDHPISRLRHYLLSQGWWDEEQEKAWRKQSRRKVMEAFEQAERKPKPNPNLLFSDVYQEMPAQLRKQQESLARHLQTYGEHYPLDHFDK
UniProt Q96GX2: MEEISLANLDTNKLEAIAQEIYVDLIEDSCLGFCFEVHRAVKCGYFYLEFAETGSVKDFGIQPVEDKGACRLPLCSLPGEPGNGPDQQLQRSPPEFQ
UniProt Q07817, whole entry, looked up: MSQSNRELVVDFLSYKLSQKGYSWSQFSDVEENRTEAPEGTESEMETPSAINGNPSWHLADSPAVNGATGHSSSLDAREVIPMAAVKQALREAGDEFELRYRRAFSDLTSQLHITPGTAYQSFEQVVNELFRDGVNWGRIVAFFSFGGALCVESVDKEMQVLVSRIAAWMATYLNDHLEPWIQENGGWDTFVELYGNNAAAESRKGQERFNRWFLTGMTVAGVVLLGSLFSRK
UniProt P25311: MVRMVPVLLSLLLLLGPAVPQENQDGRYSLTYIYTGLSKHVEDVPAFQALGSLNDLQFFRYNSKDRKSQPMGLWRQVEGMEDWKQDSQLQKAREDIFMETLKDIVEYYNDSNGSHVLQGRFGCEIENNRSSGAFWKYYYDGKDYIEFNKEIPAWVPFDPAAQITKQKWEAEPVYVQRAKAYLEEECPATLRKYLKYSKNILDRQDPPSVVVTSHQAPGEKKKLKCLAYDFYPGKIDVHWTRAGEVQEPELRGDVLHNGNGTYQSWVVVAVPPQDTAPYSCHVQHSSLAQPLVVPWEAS
UniProt O14867: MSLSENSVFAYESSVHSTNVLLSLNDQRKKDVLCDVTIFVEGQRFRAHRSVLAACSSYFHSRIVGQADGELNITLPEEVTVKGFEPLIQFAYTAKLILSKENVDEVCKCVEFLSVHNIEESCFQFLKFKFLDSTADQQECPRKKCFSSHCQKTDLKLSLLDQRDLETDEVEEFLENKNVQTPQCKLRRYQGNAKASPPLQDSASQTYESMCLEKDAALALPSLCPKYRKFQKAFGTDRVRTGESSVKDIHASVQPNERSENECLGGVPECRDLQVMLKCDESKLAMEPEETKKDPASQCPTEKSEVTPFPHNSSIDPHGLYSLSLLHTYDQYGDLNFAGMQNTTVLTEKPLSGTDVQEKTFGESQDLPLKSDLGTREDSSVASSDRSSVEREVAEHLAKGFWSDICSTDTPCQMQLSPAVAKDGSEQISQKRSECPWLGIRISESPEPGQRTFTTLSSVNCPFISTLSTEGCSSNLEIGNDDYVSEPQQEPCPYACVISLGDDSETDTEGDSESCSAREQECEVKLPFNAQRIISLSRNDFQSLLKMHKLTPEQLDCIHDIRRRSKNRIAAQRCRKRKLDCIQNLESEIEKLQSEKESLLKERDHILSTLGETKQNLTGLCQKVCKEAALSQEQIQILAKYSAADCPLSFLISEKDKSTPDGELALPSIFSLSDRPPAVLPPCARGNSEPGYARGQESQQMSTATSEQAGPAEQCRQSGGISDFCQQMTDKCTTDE
UniProt Q9P281: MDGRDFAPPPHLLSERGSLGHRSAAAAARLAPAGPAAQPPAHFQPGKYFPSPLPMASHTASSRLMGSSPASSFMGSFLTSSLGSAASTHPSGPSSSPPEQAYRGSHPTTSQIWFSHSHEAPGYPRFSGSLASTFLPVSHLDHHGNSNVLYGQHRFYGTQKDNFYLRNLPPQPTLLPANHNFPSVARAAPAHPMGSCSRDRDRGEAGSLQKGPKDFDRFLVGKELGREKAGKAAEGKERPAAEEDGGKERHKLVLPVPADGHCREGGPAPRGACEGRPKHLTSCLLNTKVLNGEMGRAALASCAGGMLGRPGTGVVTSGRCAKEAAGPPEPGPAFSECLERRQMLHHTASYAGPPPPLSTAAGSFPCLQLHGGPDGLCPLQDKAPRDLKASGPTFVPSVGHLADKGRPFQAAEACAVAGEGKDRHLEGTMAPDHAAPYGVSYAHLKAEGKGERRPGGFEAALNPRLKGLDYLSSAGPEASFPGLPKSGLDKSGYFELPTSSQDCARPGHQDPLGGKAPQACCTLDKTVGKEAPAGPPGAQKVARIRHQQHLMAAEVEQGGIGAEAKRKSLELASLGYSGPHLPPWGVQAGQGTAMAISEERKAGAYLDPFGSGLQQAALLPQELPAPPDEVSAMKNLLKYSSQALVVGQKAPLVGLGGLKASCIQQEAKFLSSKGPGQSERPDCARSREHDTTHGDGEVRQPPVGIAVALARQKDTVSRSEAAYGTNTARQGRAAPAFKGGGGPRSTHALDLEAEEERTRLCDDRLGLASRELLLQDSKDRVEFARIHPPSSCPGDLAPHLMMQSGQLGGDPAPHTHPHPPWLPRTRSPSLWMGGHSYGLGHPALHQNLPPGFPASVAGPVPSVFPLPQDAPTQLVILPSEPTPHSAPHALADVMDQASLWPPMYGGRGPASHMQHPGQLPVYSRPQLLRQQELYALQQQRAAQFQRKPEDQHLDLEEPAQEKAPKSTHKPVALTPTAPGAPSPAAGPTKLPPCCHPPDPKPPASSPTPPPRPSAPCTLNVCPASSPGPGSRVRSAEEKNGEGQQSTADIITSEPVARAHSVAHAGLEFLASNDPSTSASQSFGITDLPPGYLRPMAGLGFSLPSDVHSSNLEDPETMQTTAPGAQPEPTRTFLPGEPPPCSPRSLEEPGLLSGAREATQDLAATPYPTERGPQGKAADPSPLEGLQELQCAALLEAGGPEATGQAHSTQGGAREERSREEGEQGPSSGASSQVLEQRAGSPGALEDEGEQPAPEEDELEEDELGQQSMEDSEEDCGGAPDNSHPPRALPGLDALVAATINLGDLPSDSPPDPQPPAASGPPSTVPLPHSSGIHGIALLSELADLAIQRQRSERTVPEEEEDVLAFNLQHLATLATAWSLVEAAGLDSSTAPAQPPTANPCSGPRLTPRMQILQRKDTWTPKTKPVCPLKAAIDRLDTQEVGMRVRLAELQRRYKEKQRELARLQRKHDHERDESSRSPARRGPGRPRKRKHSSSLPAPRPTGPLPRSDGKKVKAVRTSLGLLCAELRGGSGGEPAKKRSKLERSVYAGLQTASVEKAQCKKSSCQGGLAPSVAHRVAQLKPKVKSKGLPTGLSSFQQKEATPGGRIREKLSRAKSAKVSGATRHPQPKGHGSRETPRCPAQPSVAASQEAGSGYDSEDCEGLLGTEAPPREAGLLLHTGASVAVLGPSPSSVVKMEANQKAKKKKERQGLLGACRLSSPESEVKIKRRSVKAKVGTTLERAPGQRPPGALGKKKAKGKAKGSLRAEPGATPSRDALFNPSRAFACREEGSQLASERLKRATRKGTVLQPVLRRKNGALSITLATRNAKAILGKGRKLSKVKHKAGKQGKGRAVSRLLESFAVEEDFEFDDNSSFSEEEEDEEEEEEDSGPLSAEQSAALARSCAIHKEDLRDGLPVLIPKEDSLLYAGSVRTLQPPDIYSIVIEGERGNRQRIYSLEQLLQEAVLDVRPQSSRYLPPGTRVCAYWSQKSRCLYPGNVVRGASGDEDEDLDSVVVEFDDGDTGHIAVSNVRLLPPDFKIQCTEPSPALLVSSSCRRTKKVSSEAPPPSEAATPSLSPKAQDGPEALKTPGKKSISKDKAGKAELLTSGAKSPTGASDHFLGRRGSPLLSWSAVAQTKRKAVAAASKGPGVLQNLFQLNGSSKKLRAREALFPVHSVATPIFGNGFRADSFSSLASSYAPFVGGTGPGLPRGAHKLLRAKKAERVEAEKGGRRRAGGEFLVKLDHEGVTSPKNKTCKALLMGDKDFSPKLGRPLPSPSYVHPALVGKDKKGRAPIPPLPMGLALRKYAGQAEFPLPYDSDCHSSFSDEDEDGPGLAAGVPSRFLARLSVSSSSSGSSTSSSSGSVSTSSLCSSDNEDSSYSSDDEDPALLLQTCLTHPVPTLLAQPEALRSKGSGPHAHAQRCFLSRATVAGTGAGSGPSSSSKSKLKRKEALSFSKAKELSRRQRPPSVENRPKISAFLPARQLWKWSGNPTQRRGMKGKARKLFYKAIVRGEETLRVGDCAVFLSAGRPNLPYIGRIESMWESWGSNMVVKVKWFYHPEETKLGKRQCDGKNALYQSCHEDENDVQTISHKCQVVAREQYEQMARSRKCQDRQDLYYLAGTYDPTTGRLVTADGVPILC
UniProt Q6QNY1: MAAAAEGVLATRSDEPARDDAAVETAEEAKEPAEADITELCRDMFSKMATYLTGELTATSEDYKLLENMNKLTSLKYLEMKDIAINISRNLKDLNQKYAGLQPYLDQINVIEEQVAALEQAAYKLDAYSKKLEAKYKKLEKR
UniProt Q9UHR4: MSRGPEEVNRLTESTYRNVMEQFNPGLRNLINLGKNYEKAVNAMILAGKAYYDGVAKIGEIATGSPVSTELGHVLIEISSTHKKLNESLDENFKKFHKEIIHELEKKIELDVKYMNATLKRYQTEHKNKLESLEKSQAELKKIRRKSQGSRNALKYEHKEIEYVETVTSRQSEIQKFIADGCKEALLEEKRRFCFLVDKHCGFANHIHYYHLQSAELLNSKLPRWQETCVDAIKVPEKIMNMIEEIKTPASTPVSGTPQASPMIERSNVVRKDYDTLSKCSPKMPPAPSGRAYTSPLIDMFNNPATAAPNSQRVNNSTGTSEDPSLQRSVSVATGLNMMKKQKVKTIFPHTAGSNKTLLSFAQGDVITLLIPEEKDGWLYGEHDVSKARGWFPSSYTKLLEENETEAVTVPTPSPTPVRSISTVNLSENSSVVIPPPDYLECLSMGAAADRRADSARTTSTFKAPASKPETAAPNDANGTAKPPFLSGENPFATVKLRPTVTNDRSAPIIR
UniProt Q96FH0: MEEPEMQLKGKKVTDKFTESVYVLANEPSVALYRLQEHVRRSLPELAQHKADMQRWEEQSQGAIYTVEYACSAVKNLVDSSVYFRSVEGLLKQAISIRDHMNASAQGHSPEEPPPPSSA
UniProt O15155: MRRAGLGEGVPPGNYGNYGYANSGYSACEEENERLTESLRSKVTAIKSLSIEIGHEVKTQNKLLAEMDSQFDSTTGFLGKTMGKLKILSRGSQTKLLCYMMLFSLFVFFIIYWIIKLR

Legend:
Assay in all cases: log2 fold change, soluble protein after heating vs DMSO (PISA); higher = thermal stabilisation; K562 cells, 10 uM, 30 min; active = over 0.2 and 3.5 SD of the protein, either way, in both replicates (recomputed)
[1] = compound: CC[C@@H]1C(=O)N(C)c2cnc(Nc3ccc(C(=O)NC4CCN(C)CC4)cc3OC)nc2N1C1CCCC1
Summary of the method: (§1)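 K562 cells at 2×10^6 cells/mL were exposed to 10 μM compound for 30 min, then aliquots were heated for 3 min across 48°C-58°C, pooled, and extracted in PBS containing 0.5% NP-40 at 4°C. The supernatant after 21,000xg for 90 min was taken as soluble protein and measured by TMTpro 16plex LC-MS/MS with channel sums equalised. Thermal stability is reported relative to control samples, with values from duplicates. Fold changes are given on a log2 scale.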

volasertib = compound: CC[C@@H]1C(=O)N(C)c2cnc(Nc3ccc(C(=O)N[C@H]4CC[C@H](N5CCN(CC6CC6)CC5)CC4)cc3OC)nc2N1C(C)C [volasertib]
Summary of the method: as §1

[2] = compound: CC[C@H](C)N1C=C(C2=C(C=C(C=C21)C3=CN=C(C=C3)N4CCNCC4)C(=O)NCC5=C(C=C(NC5=O)C)C)C
Summary of the method: as §1

epoxomicin = compound: CC[C@H](C)[C@@H](C(=O)N[C@@H]([C@@H](C)O)C(=O)N[C@@H](CC(C)C)C(=O)[C@]1(CO1)C)NC(=O)[C@H]([C@@H](C)CC)N(C)C(=O)C [epoxomicin]
Summary of the method: as §1

[3] = compound: CCn1c(C(=O)N(C2CC2)C2CC2)cc2c3c(ncn3C)c(Nc3cc(C)n(C)n3)nc21
Summary of the method: as §1

[4] = compound: CCn1cc(-c2ccnc3[nH]c(-c4cccc(CN(C)C)c4)cc23)c(-c2ccc(NC(=O)N(C)C)cc2)n1
Summary of the method: as §1

[5] = compound: CN(C)CC(=O)Nc1ccc2[nH]c(=O)c3ccccc3c2c1
Summary of the method: as §1

rosiglitazone = compound: CN(CCOC1=CC=C(C=C1)C[C@H]2C(=O)NC(=O)S2)C3=CC=CC=N3 (racemic) [rosiglitazone]
Summary of the method: as §1

[6] = compound: CN1C2=C(C3=C1C(=O)N(N=C3)CC4=CC(=CC=C4)N)SC(=C2)S(=O)C
Summary of the method: as §1

[7] = compound: CN1CCC(CNc2ccc3ncc(-c4cccc(OC(F)(F)F)c4)n3n2)CC1
Summary of the method: as §1

Measured: log2 fold change

BAG2 (UniProt O95816)
inactive: [1] 0.135 | volasertib 0.135 | [2] 0.012 | epoxomicin -0.172 | [3] 0.066 | [4] 0.081 | [5] -0.116 | rosiglitazone -0.028 | [6] 0.179 | [7] 0.13

ATXN2 (UniProt Q99700)
inactive: [1] 0.017 | volasertib 0.002 | [2] 0.022 | epoxomicin 0.019 | [3] -0.012 | [4] -0.022 | [5] -0.012 | rosiglitazone -0.047 | [6] 0.016 | [7] -0.04

BCAT1 (UniProt P54687)
inactive: [1] -0.005 | volasertib 0.045 | [2] -0.058 | epoxomicin -0.027 | [3] -0.031 | [4] -0.029 | [5] -0.008 | rosiglitazone 0.012 | [6] -0.056 | [7] -0.051

B4GAT1 (UniProt O43505)
inactive: [1] 0.337 | volasertib 0.077 | [2] -0.017 | epoxomicin -0.022 | [3] 0.069 | [4] -0.406 | [5] -0.157 | rosiglitazone 0.058 | [6] -0.034 | [7] 0.027

BANF1 (UniProt O75531)
inactive: [1] 0.041 | volasertib -0.019 | [2] -0.012 | epoxomicin 0.185 | [3] -0.019 | [4] -0.035 | [5] -0.01 | rosiglitazone 0.03 | [6] -0.068 | [7] 0.178

BCAP31 isoform 2 (UniProt P51572)
inactive: [1] -0.001 | volasertib 0.086 | [2] -0.058 | epoxomicin -0.003 | [3] 0.032 | [4] 0.056 | [5] -0.051 | rosiglitazone -0.009 | [6] -0.02 | [7] 0.137

BLOC1S4 (UniProt Q9NUP1)
inactive: [1] -0.113 | volasertib 0.015 | [2] 0.002 | epoxomicin -0.014 | [3] -0.012 | [4] 0.012 | [5] 0.043 | rosiglitazone 0.018 | [6] -0.019 | [7] -0.078

BICD1 (UniProt Q96G01)
inactive: [1] -0.007 | volasertib -0.167 | [2] 0.022 | epoxomicin -0.023 | [3] 0.003 | [4] -0.044 | [5] 0.028 | rosiglitazone 0.014 | [6] -0.025 | [7] -0.098

BLOC1S5 (UniProt Q8TDH9)
inactive: [1] 0.005 | volasertib 0.017 | [2] -0.017 | epoxomicin -0.007 | [3] -0.035 | [4] -0.017 | [5] 0.036 | rosiglitazone 0.031 | [6] -0.039 | [7] 0.023

BIRC6 (UniProt Q9NR09)
inactive: [1] -0.07 | volasertib -0.09 | [2] 0.048 | epoxomicin -0.031 | [3] -0.012 | [4] 0.01 | [5] 0.033 | rosiglitazone 0.027 | [6] 0.045 | [7] -0.033

BCAS2 (UniProt O75934)
inactive: [1] -0.013 | volasertib -0.223 | [2] -0.015 | epoxomicin -0.006 | [3] -0.013 | [4] 0.077 | [5] -0.052 | rosiglitazone -0.022 | [6] -0.028 | [7] 0.053

B3GLCT (UniProt Q6Y288)
inactive: [1] -0.038 | volasertib 0.152 | [2] -0.024 | epoxomicin 0.101 | [3] 0.027 | [4] -0.025 | [5] -0.009 | rosiglitazone 0.071 | [6] 0.007 | [7] 0.117

BPNT1 (UniProt O95861)
inactive: [1] 0.018 | volasertib 0.086 | [2] -0.005 | epoxomicin 0.036 | [3] 0.034 | [4] -0.041 | [5] -0.024 | rosiglitazone 0.009 | [6] -0.096 | [7] 0.016

BAG3 (UniProt O95817)
inactive: [1] -0.052 | volasertib 0.027 | [2] -0.01 | epoxomicin 0.018 | [3] 0.012 | [4] -0.008 | [5] -0.026 | rosiglitazone -0.011 | [6] 0.011 | [7] -0.137

BCKDHA (UniProt P12694)
inactive: [1] -0.056 | volasertib -0.016 | [2] -0.025 | epoxomicin -0.119 | [3] -0.018 | [4] -0.064 | [5] 0.02 | rosiglitazone -0.01 | [6] -0.003 | [7] -0.097

ATXN7L3B (UniProt Q96GX2)
inactive: [1] -0.02 | volasertib -0.041 | [2] -0.002 | epoxomicin 0.021 | [3] 0.014 | [4] 0.021 | [5] 0.146 | rosiglitazone 0.023 | [6] -0.036 | [7] -0.031

BNIP2 (UniProt J3KN59)
inactive: [1] -0.081 | volasertib -0.438 | [2] -0.079 | epoxomicin -0.068 | [3] -0.04 | [4] 0.082 | [5] 0.003 | rosiglitazone 0.002 | [6] -0.108 | [7] -0.192

BCL2L1 (UniProt Q07817)
inactive: [1] 0.021 | volasertib -0.004 | [2] -0.025 | epoxomicin 0 | [3] 0.04 | [4] 0.065 | [5] 0.001 | rosiglitazone 0.018 | [6] -0.095 | [7] 0.225

BSDC1 (UniProt Q9NW68)
inactive: [1] -0.054 | volasertib -0.215 | [2] 0.014 | epoxomicin -0.006 | [3] 0.038 | [4] 0.017 | [5] -0.021 | rosiglitazone 0.014 | [6] -0.021 | [7] -0.098

BCL2L13 (UniProt Q9BXK5)
inactive: [1] -0.026 | volasertib -0.229 | [2] 0.017 | epoxomicin 0.024 | [3] -0.007 | [4] -0.01 | [5] 0.006 | rosiglitazone 0.031 | [6] -0.075 | [7] -0.023

AZGP1 (UniProt P25311)
inactive: [1] 0.083 | volasertib 0.169 | [2] 0.292 | epoxomicin 0.914 | [3] -0.113 | [4] -0.075 | [5] 0.474 | rosiglitazone 0.458 | [6] 0.592 | [7] -0.257

BACH1 (UniProt O14867)
inactive: [1] 0.047 | volasertib 0.022 | [2] -0.007 | epoxomicin 0.034 | [3] 0.043 | [4] 0.036 | [5] -0.057 | rosiglitazone -0.039 | [6] -0.028 | [7] -0.132

BAHCC1 (UniProt Q9P281)
inactive: [1] 0.238 | volasertib -0.07 | [2] -0.223 | epoxomicin -0.168 | [3] 0.024 | [4] 0.069 | [5] -0.183 | rosiglitazone 0.183 | [6] 0.06 | [7] -0.163

BORCS5 (UniProt Q969J3)
inactive: [1] -0.056 | volasertib 0.096 | [2] -0.016 | epoxomicin -0.111 | [3] 0.019 | [4] 0.066 | [5] 0.024 | rosiglitazone 0.027 | [6] -0.047 | [7] -0.238

BLOC1S2 (UniProt Q6QNY1)
inactive: [1] 0.063 | volasertib -0.033 | [2] -0.007 | epoxomicin 0.131 | [3] -0.024 | [4] -0.019 | [5] -0.096 | rosiglitazone 0 | [6] -0.002 | [7] -0.021

BAK1 (UniProt Q16611)
inactive: [1] -0.016 | volasertib 0.039 | [2] -0.041 | epoxomicin 0.185 | [3] -0.042 | [4] 0.137 | [5] 0.089 | rosiglitazone 0.055 | [6] 0.044 | [7] 0.154

BICD2 isoform 2 (UniProt Q8TD16)
inactive: [1] 0.035 | volasertib -0.112 | [2] 0.08 | epoxomicin -0.004 | [3] -0.024 | [4] -0.057 | [5] 0.031 | rosiglitazone 0.069 | [6] -0.019 | [7] 0.028

BAIAP2L1 (UniProt Q9UHR4)
inactive: [1] 0.036 | volasertib 0.051 | [2] 0.014 | epoxomicin 0.014 | [3] 0.029 | [4] -0.009 | [5] -0.009 | rosiglitazone -0.002 | [6] -0.03 | [7] -0.002

2 consecutive records already listed, for reference:
BORCS5 (UniProt Q969J3)
inactive: [1] -0.056 | volasertib 0.096 | [2] -0.016 | epoxomicin -0.111 | [3] 0.019 | [4] 0.066 | [5] 0.024 | rosiglitazone 0.027 | [6] -0.047 | [7] -0.238

BLOC1S2 (UniProt Q6QNY1)
inactive: [1] 0.063 | volasertib -0.033 | [2] -0.007 | epoxomicin 0.131 | [3] -0.024 | [4] -0.019 | [5] -0.096 | rosiglitazone 0 | [6] -0.002 | [7] -0.021

Carrying on.

BORCS8 (UniProt Q96FH0)
inactive: [1] -0.108

BCL10 (UniProt O95999)
inactive: [1] 0.004 | volasertib -0.179 | [2] 0.085 | epoxomicin 0.012 | [3] 0.018 | [4] -0.002 | [5] 0.009 | rosiglitazone 0.013 | [6] 0 | [7] -0.17

BET1 (UniProt O15155)
inactive: [1] 0 | volasertib -0.049 | [2] 0.008 | epoxomicin 0.032 | [3] 0.06 | [4] -0.004 | [5] 0 | rosiglitazone 0.035 | [6] -0.019 | [7] -0.024
